Experimental findings from paper doi:10.1101/2024.11.26.625568 are described below.

Results are given in words; binding and its absence hold for the method and conditions named.

The target of this assay is NuMA MTBD1 (human) (UniProt Q14980). Briefly: mass photometry; single protein diluted to 5-20 nM in 50 mM HEPES pH 7.4, 150 mM NaCl, 1 mM EGTA, 10% glycerol; TwoMP mass photometer; both purified.

B1: NuMA MTBD1 (domain or fragment, UniProt Q14980 1811-1985)
chain: TTQIINITMTKKLDVEEPDSANSSFYSTRSAPASQASLRATSSTQSLARLGSPDYGNSALLSLPGYRPTTRSSARRSQAGVSSGAPPGRNSFYMGTCQDEPEQLDDWNRIAELQQRNRVCPPHLKTCYPLESRPSLSLGTITDEEMKTGDPQETLRRASMQPIQIAEGTGITTRQ
Regarding B1, the binding result was “no binding (tested: 5–20 nM)”.
